Assay results taken from patent US20220380444A1.
These are yes or no findings as the source states them, for the method shown. Some binding calls cover weakened binding; strength is not graded here. Blank lines part the entries; values can stand above or below the binder they belong to.

Chains of the proteins cited; added tags and fusions are not shown. Lines headed by an entry give the natural chain unless they say otherwise; changes in a name come on top.
UniProt P10643: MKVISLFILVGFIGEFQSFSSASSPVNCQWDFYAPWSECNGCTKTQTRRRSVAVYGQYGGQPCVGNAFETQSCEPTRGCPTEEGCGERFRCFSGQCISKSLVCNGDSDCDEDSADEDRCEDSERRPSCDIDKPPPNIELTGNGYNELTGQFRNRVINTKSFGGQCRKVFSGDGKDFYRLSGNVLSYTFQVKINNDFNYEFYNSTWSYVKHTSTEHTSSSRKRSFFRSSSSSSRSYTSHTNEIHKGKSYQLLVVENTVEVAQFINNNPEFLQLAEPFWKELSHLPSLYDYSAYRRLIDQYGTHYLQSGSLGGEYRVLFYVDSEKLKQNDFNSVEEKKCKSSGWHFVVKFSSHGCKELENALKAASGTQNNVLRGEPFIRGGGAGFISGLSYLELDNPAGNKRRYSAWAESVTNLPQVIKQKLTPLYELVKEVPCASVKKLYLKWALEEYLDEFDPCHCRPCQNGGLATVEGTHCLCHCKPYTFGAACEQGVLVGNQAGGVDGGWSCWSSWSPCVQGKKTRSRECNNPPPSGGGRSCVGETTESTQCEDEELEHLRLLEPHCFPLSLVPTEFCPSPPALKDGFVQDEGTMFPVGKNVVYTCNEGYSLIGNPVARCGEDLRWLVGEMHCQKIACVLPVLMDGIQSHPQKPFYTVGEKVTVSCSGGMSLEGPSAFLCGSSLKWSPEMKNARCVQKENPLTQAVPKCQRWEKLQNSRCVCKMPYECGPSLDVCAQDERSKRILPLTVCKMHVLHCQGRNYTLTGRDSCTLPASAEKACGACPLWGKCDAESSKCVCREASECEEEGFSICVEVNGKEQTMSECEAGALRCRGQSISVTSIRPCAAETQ

Columns and labels:
[1] = molecular target: human complement protein C7 (human) (UniProt P10643); test: western blot
[2] = molecular target: human complement protein C7 (human) (UniProt P10643); test: SPR (Biacore)
[3] = molecular target: human complement protein C7 (human) (UniProt P10643); test: direct ELISA, C7 coated on plate
[4] = molecular target: human complement protein C7 (human) (UniProt P10643); test: direct ELISA, human C7 on the well, antibody titrated
[5] = molecular target: human complement protein C7 (human) (UniProt P10643); test: western blot, non-reduced, purified C7 and human serum
[6] = molecular target: human complement protein C7 (human) (UniProt P10643); test: sandwich ELISA, 73D1 coated as capture, human C7 titrated, Poly anti-C7 as detection
[7] = molecular target: human complement protein C7 (human) (UniProt P10643); test: sandwich ELISA, goat anti-C7 coated as capture, human C7 titrated, labelled 73D1 as detection
[8] = molecular target: human complement protein C7 (human) (UniProt P10643); test: direct ELISA, C7 immobilised on the well, antibody titrated
[9] = molecular target: human complement protein C7 (human) (UniProt P10643); test: western blot of human serum, non-reduced (NR) and reduced (R)
[10] = molecular target: human complement protein C7 (human) (UniProt P10643); test: western blot of human serum, reduced (R) and non-reduced (NR)
[11] = molecular target: human complement protein C7 (human) (UniProt P10643); test: western blot, non-reducing conditions (no detection under reducing conditions)
[12] = molecular target: human complement protein C7 (human) (UniProt P10643); test: sandwich ELISA, 17E7 coated as capture, human C7 titrated, Poly anti-C7 as detection
[13] = molecular target: human complement protein C7 (human) (UniProt P10643); test: sandwich ELISA, goat anti-C7 coated as capture, human C7 titrated, labelled 17E7 as detection
[14] = molecular target: human complement protein C7 (human) (UniProt P10643); test: direct ELISA and sandwich ELISA
[15] = molecular target: human complement protein C7 (human) (UniProt P10643); test: western blot, non-reduced human serum
[16] = molecular target: human complement protein C7 (human) (UniProt P10643); test: western blot of serum, non-reducing conditions (no detection under reducing conditions)
[17] = molecular target: human complement protein C7 (human) (UniProt P10643); test: sandwich ELISA, 2H2 coated as capture, human C7 titrated, goat anti-C7 as detection
[18] = molecular target: human complement protein C7 (human) (UniProt P10643); test: sandwich ELISA, 2H2 coated as capture, human C7 titrated, Poly anti-C7 as detection
[19] = molecular target: human complement protein C7 (human) (UniProt P10643); test: sandwich ELISA, 2H2 coated as capture, human C7 titrated, polyclonal anti-C7 as detection
[20] = molecular target: human complement protein C7 (human) (UniProt P10643); test: sandwich ELISA, goat anti-C7 coated as capture, human C7 titrated, labelled 2H2 as detection

binding [1]: binds | binding [2]: binds | binding [3]: binds | binding [4]: binds | binding [5]: binds | binding [6]: binds | binding [7]: binds
B1: monoclonal anti-C7 antibody 73D1 (antibody, IgG2a, V domains shown)
VH: EVQLQQSGPELVKPGASVKMSCKASGYTFTDYNMHWVKQSHGKSLEWIGYINPNNGGPSYNQNFKGKATLTVNKSSSTAYMELRSLTSEDSAVYYCACGNYPDYWGQGTTLTVSS
VL: DIQMTQSPASLSASVGETVTITCRASGNIHNYLAWYQQKQGKSPQLLVYNAKTLADGVPSRFSGSGSGTQYSLKINSLQPEDFGSYYCQHFWSTPLTFGAGTKLELK

binding [2]: binds | binding [3]: binds | binding [4]: binds | binding [8]: binds | binding [9]: binds | binding [10]: binds | binding [11]: binds | binding [12]: binds | binding [13]: binds
B2: monoclonal anti-C7 antibody 17E7 (antibody, IgG2a, V domains shown)
VH: EVQLQQSGTVLARPGASVKMSCKTSGYSFTTYWMHWVKQRPGQGLEWIGAIYPGNSDTYYSQKFKDKAKLTAVTSASTAYMELSSLTNEDSAVYYCTRSGGYDVGGLDYWGQGTTLTVSS
VL: DIVMTQSPATLSVTPGDGVSLSCRASQSISDYLHWYQQKSHESPRLLIKFASQSISGIPSRFSGSGSGSDFTLSINSVEPEDVGMYYCQNGHSFPFTFGSGTKLELK

binding [1]: binds | binding [14]: binds | binding [3]: binds | binding [15]: binds | binding [4]: binds | binding [16]: binds | binding [17]: binds | binding [18]: binds | binding [19]: binds | binding [20]: binds
B3: monoclonal anti-C7 antibody 2H2 (antibody, IgG2b, V domains shown)
VH: QVQLQQPGAELMKPGASVKLSCKASGYIFTSYWMHWVKQRPGRGLEWIGRIDPNSGGTNYNEKFKSKATLTVDKPSSTVYMKISSLTSEDSAVYYCAREHDYDYAMDYWGQGTSVTVSS
VL: DIVMTQAAPSVPVTPGESVSISCRSSKSLLHSNGNTYLYWFLQRPGQSPQLLIYRMSNLASGVPDRFSGSGSGTAFTLRISRVEAEDVGVYYCMQHLEYPFTFGSGTKLEIK
